Structures were worked out from names or drawings and are uncertain.
Experiments:
CB1 receptor (rCB1) = CB1 receptor (rCB1) (Rattus norvegicus, UniProt P20272); assay: cAMP assay (inhibition of FSK stimulated cAMP), CB1; type: cell-based; settings: read-out: EC50 (cAMP) CB1 receptor; class symbols
CB2 receptor (hCB2) = CB2 receptor (hCB2) (Homo sapiens, UniProt P34972); assay: cAMP assay (inhibition of FSK stimulated cAMP), CB2; type: cell-based; settings: read-out: EC50 (cAMP) CB2 receptor; class symbols
Protocol: FIG. 2A is a graph providing data of the % inhibition of FSK stimulated cAMP for compound 6.1.1 for hCB2.
Further functional characterization of some of the disclosed compounds tested initially for “binding affinity” or for GTPγ-S binding was performed by using the cyclic adenosine monophosphate (cAMP) assay. Key compounds initially characterized functionally using the GTPγ-S assay were also doubly tested using the cAMP assay to unambiguously confirm their functional profiles. The functional potency of the compounds tested using the cyclase assay is also represented by the EC50 (cAMP) value and similarly the lower the EC50 (cAMP) value the higher the potency of the compound for the receptor. A detailed description of the methods used to test compounds using the cAMP assay is given in Yingpeng, et al. J. Med. Chem. (2018) 61, 8639-8657 the content of which is hereby incorporated by reference. The EC50 values (potency of a test compound) of the functional assays may or may not be accompanied by the E(max) value in tables 1-5 (efficacy of the test compound). E(max)/efficacy is the maximum GTP stimulation or cAMP inhibition levels and is presented as the percentage of maximum response evoked by a standard CB1/CB2 full agonist (e.g., CP-55,940) for reference see the paper cited above. […]

Protein sequences, listed by entry. Tags and fused reporters are not part of them.
UniProt P20272, whole entry: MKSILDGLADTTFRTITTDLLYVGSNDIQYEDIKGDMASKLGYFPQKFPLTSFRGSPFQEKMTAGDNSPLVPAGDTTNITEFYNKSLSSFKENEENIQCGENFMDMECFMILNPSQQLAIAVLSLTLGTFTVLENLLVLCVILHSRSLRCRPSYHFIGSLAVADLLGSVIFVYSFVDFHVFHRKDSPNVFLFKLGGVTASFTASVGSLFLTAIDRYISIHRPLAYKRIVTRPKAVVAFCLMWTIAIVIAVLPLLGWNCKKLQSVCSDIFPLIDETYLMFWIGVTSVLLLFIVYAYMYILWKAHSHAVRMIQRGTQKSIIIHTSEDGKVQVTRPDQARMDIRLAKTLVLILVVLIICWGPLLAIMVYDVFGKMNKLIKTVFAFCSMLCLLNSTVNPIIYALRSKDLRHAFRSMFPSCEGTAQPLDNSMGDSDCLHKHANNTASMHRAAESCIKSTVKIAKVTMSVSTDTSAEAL
UniProt P34972, whole entry: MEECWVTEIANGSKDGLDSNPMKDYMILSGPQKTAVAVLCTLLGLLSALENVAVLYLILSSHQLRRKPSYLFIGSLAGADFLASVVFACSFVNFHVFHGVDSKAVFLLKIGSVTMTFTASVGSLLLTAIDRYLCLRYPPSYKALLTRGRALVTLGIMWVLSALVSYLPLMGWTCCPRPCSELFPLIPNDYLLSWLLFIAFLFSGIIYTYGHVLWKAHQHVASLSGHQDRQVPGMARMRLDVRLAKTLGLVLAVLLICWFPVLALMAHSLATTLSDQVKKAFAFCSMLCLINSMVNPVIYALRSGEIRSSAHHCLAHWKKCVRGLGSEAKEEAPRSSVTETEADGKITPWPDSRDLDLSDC

SMILES: C[C@H](/C=C\C/C=C\C/C=C\CCCC(=O)OC(CO)CO)/C=C\CCCCCC#N
- EC50 (CB1 receptor (rCB1)): 10 to 200 nM
- EC50 (CB2 receptor (hCB2)): 10 to 200 nM

— patent US20260234099A1, “Endocannabinoid ligands and related analogs” (Northeastern University, priority 2023, published 2026)
